In publication PMC11408687:
Results are given in words; binding and its absence hold for the method and conditions named. Binding seen in cells or lysates may run through a third protein. These calls come from enrichment with a bait or labelling near it, and not all partners need be listed.

Chains of the proteins cited; added tags and fusions are not shown. Residues count along the entry.
UniProt Q91VN0, residues 31-1614: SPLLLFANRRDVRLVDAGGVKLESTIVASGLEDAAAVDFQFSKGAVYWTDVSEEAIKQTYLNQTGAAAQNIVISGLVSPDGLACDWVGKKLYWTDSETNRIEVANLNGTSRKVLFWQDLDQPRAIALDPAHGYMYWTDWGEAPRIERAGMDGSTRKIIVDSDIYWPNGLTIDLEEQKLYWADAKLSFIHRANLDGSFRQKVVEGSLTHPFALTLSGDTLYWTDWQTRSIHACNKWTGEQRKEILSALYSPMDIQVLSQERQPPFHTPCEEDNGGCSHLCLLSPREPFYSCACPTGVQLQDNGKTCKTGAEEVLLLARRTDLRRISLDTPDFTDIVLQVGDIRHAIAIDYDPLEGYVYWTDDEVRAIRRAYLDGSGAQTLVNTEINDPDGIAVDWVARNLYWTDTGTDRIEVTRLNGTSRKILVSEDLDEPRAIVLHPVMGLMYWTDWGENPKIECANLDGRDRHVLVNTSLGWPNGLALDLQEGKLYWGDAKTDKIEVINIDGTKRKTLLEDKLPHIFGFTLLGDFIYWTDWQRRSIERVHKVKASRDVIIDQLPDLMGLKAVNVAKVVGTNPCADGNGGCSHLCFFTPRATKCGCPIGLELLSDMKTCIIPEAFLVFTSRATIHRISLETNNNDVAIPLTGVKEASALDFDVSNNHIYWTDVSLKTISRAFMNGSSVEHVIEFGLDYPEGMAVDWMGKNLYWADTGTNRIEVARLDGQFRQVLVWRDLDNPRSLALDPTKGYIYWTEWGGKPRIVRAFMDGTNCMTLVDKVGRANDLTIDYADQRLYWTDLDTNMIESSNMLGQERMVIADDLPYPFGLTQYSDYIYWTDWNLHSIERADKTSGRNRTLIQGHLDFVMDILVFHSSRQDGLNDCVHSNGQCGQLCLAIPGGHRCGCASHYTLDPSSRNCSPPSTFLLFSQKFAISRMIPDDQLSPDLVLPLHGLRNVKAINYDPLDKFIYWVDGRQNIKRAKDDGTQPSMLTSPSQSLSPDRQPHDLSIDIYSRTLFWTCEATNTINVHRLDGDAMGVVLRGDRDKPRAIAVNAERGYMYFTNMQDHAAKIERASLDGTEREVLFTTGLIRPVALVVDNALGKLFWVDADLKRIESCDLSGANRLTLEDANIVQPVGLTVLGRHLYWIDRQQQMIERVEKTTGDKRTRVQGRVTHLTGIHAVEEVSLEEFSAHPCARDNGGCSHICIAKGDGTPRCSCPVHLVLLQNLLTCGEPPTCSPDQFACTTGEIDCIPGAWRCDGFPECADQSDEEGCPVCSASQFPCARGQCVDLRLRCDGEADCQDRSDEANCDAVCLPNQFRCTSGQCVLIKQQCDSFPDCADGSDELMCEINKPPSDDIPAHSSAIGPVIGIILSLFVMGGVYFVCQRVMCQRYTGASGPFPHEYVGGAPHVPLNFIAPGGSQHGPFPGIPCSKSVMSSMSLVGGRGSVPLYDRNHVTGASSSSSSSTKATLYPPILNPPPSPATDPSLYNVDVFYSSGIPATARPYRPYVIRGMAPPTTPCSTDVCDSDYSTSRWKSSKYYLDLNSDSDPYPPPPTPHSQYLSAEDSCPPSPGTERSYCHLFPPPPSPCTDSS

Biological target: T1, Mesencephalic astrocyte-derived neurotrophic factor (MANF), endogenous in mouse liver (mouse (endogenous in liver tissue)) (UniProt Q9CXI5)
T1 sequence: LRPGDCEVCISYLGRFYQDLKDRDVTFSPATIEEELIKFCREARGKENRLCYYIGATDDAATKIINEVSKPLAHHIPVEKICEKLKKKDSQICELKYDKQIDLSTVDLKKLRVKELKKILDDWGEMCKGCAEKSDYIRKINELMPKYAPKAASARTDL
Test: affinity purification with mass spectrometry; Co-IP with MANF antibody plus mass spectrometry analysis; sample not stated

binding: binds
Substance: Low-density lipoprotein receptor-related protein 5 (LRP5), endogenous in mouse liver (from UniProt Q91VN0 31-1614)
